Consider 24 targets from the supplement of paper PMC12067093, “Discovery and optimisation of a covalent ligand for TRIM25 and its application to targeted protein ubiquitination” (Chemical Science, 2025).

Sequences of proteins named here, by UniProt entry; tags and fusion partners are left off. A change or cut given only in a name is not applied to a line headed by its entry.
UniProt Q9NUD5: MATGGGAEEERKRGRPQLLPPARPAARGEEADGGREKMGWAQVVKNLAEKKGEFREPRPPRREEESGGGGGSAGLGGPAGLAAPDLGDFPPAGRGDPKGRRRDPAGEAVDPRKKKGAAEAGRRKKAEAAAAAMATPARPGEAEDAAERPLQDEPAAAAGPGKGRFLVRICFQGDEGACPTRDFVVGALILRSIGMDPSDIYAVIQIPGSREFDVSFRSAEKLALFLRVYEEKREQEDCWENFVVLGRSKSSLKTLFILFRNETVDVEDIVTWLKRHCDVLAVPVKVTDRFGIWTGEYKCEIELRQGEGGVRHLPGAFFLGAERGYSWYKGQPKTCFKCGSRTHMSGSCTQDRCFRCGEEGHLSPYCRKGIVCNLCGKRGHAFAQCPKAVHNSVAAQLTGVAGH
UniProt P18887, whole entry, looked up: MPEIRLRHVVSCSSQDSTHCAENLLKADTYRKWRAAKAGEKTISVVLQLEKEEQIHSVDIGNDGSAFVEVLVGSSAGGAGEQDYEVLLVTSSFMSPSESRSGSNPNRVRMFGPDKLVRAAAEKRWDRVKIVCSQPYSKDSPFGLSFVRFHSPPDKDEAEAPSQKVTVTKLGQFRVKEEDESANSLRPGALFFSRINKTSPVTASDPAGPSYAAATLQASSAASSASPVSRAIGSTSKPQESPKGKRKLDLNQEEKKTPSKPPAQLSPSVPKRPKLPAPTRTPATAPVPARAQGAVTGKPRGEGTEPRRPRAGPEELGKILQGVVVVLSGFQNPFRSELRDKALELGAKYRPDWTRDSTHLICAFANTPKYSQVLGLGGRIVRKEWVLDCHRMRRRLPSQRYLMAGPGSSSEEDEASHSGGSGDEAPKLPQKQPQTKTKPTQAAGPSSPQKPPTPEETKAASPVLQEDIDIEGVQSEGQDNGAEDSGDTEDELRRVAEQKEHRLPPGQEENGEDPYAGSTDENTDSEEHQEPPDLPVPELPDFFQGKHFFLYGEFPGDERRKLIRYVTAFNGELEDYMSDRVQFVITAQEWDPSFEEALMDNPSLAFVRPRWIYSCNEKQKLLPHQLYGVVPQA
UniProt P63104: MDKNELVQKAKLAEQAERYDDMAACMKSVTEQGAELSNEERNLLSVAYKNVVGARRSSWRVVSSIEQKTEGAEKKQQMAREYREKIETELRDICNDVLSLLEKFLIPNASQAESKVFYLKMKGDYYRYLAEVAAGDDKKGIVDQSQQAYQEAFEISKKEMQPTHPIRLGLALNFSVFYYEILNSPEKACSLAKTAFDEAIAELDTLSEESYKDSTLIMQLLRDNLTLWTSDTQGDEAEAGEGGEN
UniProt P13010: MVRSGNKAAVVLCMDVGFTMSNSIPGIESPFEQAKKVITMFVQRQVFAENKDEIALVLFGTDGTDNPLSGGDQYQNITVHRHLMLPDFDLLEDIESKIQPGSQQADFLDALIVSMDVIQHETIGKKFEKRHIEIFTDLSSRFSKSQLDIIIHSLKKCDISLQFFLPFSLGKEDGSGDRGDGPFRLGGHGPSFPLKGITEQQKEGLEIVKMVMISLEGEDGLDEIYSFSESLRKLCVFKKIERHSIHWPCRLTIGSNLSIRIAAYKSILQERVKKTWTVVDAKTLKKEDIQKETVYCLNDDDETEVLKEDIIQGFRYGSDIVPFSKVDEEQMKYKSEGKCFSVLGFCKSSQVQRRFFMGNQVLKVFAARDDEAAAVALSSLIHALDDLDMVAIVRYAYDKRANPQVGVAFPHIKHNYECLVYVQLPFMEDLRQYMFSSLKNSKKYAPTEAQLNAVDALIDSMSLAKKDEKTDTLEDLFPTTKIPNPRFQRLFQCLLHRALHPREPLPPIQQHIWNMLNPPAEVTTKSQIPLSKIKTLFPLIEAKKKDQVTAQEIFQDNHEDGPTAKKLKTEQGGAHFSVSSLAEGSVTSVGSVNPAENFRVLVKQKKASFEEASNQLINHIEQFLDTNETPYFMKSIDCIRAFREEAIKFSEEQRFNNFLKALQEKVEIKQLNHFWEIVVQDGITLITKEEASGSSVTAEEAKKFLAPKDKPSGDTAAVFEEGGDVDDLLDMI
UniProt O75152: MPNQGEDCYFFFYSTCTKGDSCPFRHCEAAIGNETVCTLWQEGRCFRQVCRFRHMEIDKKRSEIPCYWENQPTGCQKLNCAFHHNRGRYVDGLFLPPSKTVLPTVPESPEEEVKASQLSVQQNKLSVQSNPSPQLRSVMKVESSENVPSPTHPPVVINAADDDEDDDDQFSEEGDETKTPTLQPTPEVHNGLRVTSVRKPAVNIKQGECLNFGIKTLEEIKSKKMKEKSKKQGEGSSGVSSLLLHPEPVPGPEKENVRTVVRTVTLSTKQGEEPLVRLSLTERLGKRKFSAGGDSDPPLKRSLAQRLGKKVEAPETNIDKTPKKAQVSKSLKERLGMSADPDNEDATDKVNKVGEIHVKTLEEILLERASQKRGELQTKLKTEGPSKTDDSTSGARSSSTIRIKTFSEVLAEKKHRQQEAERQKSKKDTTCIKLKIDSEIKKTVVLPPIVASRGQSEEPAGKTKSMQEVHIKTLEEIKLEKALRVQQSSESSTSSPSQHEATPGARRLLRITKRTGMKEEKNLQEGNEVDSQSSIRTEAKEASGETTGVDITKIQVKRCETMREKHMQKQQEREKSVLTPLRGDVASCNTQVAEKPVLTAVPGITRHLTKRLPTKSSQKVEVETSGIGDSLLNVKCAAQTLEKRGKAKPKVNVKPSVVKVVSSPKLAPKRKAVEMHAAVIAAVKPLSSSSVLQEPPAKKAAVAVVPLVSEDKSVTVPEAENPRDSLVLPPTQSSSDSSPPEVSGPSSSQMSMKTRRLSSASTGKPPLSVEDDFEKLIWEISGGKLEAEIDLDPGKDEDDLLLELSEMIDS
UniProt P12956: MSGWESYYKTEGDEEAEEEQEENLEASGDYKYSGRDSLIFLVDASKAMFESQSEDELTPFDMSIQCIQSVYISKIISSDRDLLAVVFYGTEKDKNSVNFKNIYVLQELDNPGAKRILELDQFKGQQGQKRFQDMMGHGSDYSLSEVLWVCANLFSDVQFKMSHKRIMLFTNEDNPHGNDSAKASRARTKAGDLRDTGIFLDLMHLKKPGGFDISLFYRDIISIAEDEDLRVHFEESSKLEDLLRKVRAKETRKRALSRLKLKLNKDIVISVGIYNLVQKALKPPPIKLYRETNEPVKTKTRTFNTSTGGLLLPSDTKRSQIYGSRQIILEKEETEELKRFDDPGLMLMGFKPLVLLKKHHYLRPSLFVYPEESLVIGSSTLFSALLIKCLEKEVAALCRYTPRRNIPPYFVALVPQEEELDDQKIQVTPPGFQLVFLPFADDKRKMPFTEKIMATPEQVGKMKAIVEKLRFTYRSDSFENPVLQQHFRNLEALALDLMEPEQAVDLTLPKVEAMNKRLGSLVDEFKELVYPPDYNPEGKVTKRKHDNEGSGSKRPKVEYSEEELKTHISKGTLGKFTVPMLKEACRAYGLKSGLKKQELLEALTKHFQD
UniProt Q8N3Z6: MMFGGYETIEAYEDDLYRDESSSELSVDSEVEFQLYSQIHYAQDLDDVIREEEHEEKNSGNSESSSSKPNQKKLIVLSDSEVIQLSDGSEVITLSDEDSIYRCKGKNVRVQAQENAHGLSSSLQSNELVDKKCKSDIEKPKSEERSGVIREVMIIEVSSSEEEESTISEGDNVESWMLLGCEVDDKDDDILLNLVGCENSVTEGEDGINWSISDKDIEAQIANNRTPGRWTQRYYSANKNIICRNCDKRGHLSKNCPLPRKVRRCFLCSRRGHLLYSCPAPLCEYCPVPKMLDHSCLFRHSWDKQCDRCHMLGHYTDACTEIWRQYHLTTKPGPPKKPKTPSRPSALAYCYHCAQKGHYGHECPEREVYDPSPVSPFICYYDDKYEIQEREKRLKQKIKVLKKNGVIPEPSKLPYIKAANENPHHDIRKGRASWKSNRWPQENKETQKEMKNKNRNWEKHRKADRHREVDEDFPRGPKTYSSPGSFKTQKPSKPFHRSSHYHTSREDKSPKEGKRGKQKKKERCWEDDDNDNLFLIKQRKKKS
UniProt O43542: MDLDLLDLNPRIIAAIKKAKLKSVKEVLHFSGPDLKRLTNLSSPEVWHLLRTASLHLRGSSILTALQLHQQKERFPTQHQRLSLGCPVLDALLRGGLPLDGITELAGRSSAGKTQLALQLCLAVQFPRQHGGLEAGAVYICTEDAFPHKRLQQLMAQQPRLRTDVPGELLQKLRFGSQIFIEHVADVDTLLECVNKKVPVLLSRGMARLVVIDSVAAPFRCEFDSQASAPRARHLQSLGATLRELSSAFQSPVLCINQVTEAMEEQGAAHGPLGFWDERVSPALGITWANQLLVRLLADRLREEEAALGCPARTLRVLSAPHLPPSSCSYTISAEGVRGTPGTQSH
UniProt Q6PJT7: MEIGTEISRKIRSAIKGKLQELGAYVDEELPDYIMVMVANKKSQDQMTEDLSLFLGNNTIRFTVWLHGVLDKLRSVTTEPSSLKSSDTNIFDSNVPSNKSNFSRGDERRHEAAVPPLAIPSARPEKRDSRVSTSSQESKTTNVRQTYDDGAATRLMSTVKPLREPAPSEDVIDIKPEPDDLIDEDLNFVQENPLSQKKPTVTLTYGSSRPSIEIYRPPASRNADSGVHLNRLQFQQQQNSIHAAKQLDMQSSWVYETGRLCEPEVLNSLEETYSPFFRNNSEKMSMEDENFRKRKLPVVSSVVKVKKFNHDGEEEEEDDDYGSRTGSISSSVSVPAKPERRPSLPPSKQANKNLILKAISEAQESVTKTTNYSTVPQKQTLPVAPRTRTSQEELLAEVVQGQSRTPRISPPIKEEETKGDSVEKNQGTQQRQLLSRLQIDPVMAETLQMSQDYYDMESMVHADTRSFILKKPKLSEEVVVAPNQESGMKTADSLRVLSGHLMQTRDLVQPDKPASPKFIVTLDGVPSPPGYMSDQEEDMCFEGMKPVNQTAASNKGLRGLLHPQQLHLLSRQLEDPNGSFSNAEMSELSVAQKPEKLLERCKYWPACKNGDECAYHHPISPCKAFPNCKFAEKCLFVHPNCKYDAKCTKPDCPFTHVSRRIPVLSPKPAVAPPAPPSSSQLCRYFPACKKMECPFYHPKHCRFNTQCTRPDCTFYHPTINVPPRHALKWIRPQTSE
UniProt Q7Z2W4: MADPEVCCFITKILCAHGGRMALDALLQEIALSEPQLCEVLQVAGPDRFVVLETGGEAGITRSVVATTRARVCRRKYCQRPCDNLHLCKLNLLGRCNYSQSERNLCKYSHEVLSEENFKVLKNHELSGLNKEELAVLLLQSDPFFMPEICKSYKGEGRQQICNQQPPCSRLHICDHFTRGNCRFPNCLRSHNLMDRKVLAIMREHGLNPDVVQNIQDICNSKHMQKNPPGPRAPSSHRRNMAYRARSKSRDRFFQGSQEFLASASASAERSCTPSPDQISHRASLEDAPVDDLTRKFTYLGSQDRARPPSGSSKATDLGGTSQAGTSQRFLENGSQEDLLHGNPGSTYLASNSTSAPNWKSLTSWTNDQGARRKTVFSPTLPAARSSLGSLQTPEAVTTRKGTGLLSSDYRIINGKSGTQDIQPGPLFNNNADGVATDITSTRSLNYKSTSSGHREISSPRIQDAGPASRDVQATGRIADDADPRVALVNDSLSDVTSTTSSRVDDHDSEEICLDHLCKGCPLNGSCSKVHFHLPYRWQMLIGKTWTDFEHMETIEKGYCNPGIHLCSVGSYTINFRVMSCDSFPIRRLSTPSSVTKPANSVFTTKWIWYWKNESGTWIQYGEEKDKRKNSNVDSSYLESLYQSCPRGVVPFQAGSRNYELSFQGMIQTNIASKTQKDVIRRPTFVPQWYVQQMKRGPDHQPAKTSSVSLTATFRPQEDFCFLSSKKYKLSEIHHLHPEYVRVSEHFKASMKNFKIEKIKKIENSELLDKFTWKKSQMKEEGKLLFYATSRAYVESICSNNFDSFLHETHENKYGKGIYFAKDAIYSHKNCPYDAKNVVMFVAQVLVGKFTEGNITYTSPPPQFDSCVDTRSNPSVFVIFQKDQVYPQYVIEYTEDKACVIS
UniProt Q96H79: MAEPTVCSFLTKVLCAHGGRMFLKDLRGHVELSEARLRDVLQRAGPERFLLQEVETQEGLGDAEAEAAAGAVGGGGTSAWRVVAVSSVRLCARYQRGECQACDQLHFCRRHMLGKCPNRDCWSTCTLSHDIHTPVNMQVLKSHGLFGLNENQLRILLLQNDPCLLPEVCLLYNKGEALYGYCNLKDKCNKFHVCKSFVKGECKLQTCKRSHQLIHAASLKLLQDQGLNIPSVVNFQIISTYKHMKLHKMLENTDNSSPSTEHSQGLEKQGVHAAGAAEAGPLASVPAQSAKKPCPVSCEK

The list shows a part of the results.

Compound in the experiment: CC1Cc2ccccc2N1C(=O)C1CCCN(C1)C(=O)CCl (mixture of isomers) [TRIM25 ligand 11 (diastereomer mixture)]
The experiment in a line: probe-labelled cysteine peptide fold change vs DMSO (competition) (log2 fold change); higher = less target engagement (more negative = stronger competition). As to conditions: THP-1, incubation time: 4 h.
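Note: competitive chemoproteomic profiling in live THP-1 cells with an iodoacetamide desthiobiotin (IA-DTB) probe, comparing probe-labelled peptide intensities in compound-treated cells against DMSO-treated controls.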

As to “XPO1_O14980_498_NLNTLCWAIGSISGAMHEEDEK (UniProt O14980)”, the “probe-labelled cysteine peptide fold change” value came to 0.0218 (10 µM) and 0.0431 (50 µM).
The corresponding values for “ZCCHC3_Q9NUD5_385_GHAFAQCPK (UniProt Q9NUD5)” are -0.0776 and -0.0532.
In the case of “XRCC1_P18887_20_HVVSCSSQDSTHCAENLLK (UniProt P18887)”, the “probe-labelled cysteine peptide fold change” value is 0.168 (10 µM) and 0.00437 (50 µM).
For “YWHAZ_P63104_94_DICNDVLSLLEK (UniProt P63104)”, in that order: 0.126 and 0.114.
Regarding “ZCCHC3_Q9NUD5_277_HCDVLAVPVK (UniProt Q9NUD5)”, the “probe-labelled cysteine peptide fold change” value runs as follows: (10 µM) 0.115; (50 µM) 0.108.
For “XRCC5_P13010_339_CFSVLGFCK (UniProt P13010)”, in that order: -0.0923 and 0.0299.
For “ZC3H11A_O75152_636_CAAQTLEK (UniProt O75152)”, the “probe-labelled cysteine peptide fold change” value is, setting by setting: (10 µM) -0.086; (50 µM) -0.217.
As for “XRCC6_P12956_398_EVAALCR (UniProt P12956)”, the “probe-labelled cysteine peptide fold change” value was found to be 0.104 (10 µM) and 0.219 (50 µM).
For “ZCCHC7_Q8N3Z6_296_MLDHSCLFR (UniProt Q8N3Z6)”, in that order: -0.11 and -0.228.
The corresponding values for “XPO5_Q9HAV4_605_HACSSIIK (UniProt Q9HAV4)” are -0.06 and -0.0203.
“XPO4_Q9C0E2_492_IAAEHCIPLLTSLLEER (UniProt Q9C0E2)”: the “probe-labelled cysteine peptide fold change” value (10 µM) was found to be 0.157 and the “probe-labelled cysteine peptide fold change” value (50 µM) is -0.117.
For “ZCCHC3_Q9NUD5_348_THMSGSCTQDR (UniProt Q9NUD5)”, in that order: 0.131 and -0.318.
For “XRCC3_O43542_310_LREEEAALGCPAR (UniProt O43542)”, in that order: 0.0756 and -0.0559.
For “XRN1_Q8IZH2_1487_LSNGLLVHGPQCHSENEAK (UniProt Q8IZH2)”, in that order: -0.00266 and 0.0496.
Take “XPO7_Q9UIA9_15_ADHVQSLAQLENLCK (UniProt Q9UIA9)”: the “probe-labelled cysteine peptide fold change” value by setting is: (10 µM) 0.174; (50 µM) -0.0401.
For the target “XRN2_Q9H0D6_266_EEFKPNKPKPCGLCNQFGHEVK (UniProt Q9H0D6)”, the “probe-labelled cysteine peptide fold change” value (10 µM) is -0.101 and the “probe-labelled cysteine peptide fold change” value (50 µM) was -0.175.
For the target “ZDHHC4_Q9NPG8_337_SNLQEIFLPAFPCHER (UniProt Q9NPG8)”, the “probe-labelled cysteine peptide fold change” value by setting is: (10 µM) 0.108; (50 µM) -0.46.
The corresponding values for “ZC3H14_Q6PJT7_652_CTKPDCPFTHVSR (UniProt Q6PJT7)” are -0.0758 and -0.00933.
For “ZC3HAV1_Q7Z2W4_272_SCTPSPDQISHR (UniProt Q7Z2W4)”, in that order: 0.00382 and -0.164.
For the target “ZC3H14_Q6PJT7_613_NGDECAYHHPISPCK (UniProt Q6PJT7)”, the “probe-labelled cysteine peptide fold change” value was -0.0243 (10 µM) and -0.0561 (50 µM).
The corresponding values for “ZC3HAV1_Q7Z2W4_15_ILCAHGGR (UniProt Q7Z2W4)” are 0.0881 and 0.0508.
Consider “ZC3H11A_O75152_588_GDVASCNTQVAEK (UniProt O75152)”, for which the “probe-labelled cysteine peptide fold change” value is, setting by setting: (10 µM) -0.0193; (50 µM) -0.169.
For “ZC3HAV1_Q7Z2W4_518_VDDHDSEEICLDHLCK (UniProt Q7Z2W4)”, in that order: 0.0623 and -0.202.
In the case of “ZC3HAV1L_Q96H79_121_DCWSTCTLSHDIHTPVNMQVLK (UniProt Q96H79)”, the “probe-labelled cysteine peptide fold change” value by setting is: (10 µM) -0.0523; (50 µM) -0.0862.
